The other results are listed elsewhere or left out.

Sequences of proteins named here, by UniProt entry; tags and fusion partners are left off.
UniProt Q0JBA9, entry or part of it: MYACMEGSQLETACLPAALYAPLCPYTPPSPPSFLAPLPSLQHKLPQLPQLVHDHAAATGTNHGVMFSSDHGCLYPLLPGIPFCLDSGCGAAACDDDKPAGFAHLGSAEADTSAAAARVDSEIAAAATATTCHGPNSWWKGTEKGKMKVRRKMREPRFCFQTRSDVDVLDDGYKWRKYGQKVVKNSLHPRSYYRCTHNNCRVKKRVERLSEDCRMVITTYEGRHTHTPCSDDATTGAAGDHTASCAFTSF

The source of these data is PMC7819943, “Rice protein-binding microarrays: a tool to detect cis-acting elements near promoter regions in rice”.

This assay has as its target OsWRKY34 (Oryza sativa, UniProt Q0JBA9 1-250). Description: protein-binding microarray (RPBM); PBS, 2% BSA, 51.3 ng/ul salmon testes DNA, 50 uM zinc acetate, 200 nM TF, 25 C, 1 h; high values mean tight binding. As to conditions: protein: recombinant; tags: N-terminal polyhistidine and DsRed monomer fusion (pET32a); label: CyDye5-dUTP incorporated in the synthesized complementary strand; 3' TTTTT single-stranded linker to array surface; dsDNA, one strand shown. Put shortly: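 In PBS with 2% BSA, salmon testes DNA and 50 µM zinc acetate, 200 nM protein was incubated on a custom Agilent array at 25 °C for 1 h and then washed off. The array had been made double-stranded by primer extension with Cy5-dUTP and blocked with 2% BSA. The proteins were transcription factors fused N-terminally to polyhistidine and DsRed, expressed in E. coli BL21-CodonPlus and purified on Ni–NTA. The binding signal is per-feature fluorescence intensity (arbitrary units) from an Axon 4000B scanner.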
“TTCTGTTTGTGTCACCTTCTATCATATGTTCTATGAAATTCGGAGTCACCTAGTGCAG”: the binding signal was 8600 fluorescence intensity (a.u.).
“GGTAGATTGGTACATAATGGCATTTCAACGTGGTATTCTACGGAGTCACCTAGTGCAG”: the binding signal is 9870 fluorescence intensity (a.u.).
In the case of “GGGAGCTGCAGATCCCCTGCCTACTGCGCGTCCACGCTTCCGGAGTCACCTAGTGCAG”, the binding signal is 8120 fluorescence intensity (a.u.).
In the case of “TTTTTAGACTTTGATACGGTCTTCGAGATGCTATTTTGACCGGAGTCACCTAGTGCAG”, the binding signal is 9320 fluorescence intensity (a.u.).
With “TCGGAGGGGCAAAGCGATTTCATTGTCATCATCGATATTTCGGAGTCACCTAGTGCAG”, the binding signal is 9010 fluorescence intensity (a.u.).
Regarding “TCCTCACTTACTATATACATCCTCCTTTCTAAATTGATCACGGAGTCACCTAGTGCAG”, the binding signal was 8530 fluorescence intensity (a.u.).
In the case of “GATGGACATTGTTTGCCATCACCGTCAACGACCGTTGACTCGGAGTCACCTAGTGCAG”, the binding signal was 12900 fluorescence intensity (a.u.).
Turning to “CTCTTCTCTCATCCAATCGCGAGCCACCAAACCCTAATCCCGGAGTCACCTAGTGCAG”, the binding signal was 8330 fluorescence intensity (a.u.).
On to “GAAGTTACTATATCTCTGTCTATTATTTTCTGATCTGTGCCGGAGTCACCTAGTGCAG”, for which the binding signal is 8870 fluorescence intensity (a.u.).
Consider “CACCACAGTACCACACTTGCAATCCTCTCTCTCCATCTCCCGGAGTCACCTAGTGCAG”, for which the binding signal is 9560 fluorescence intensity (a.u.).
For “AATAACTTCACCATCTGCCTCTCAGCTTCTTTCCTTGATTCGGAGTCACCTAGTGCAG” the value was 8500 fluorescence intensity (a.u.); for “ATCACATCAACCTGTCATATACACACAACTTTTCAGTCATCGGAGTCACCTAGTGCAG”, 8530 fluorescence intensity (a.u.); for “AAATTGGTGGGTGTTAGTTTCCCTCTACTGACTGAAATCGCGGAGTCACCTAGTGCAG”, 9880 fluorescence intensity (a.u.).
On to “AATTTGCTGTCTGTGTACATAGCTGTTGTCTCTTATGTGTCGGAGTCACCTAGTGCAG”, for which the binding signal was 9480 fluorescence intensity (a.u.).
Take “AAATATGGTGCTTGTTTATTTGTTCTTGGGATGATCTTGCCGGAGTCACCTAGTGCAG”: the binding signal is 10000 fluorescence intensity (a.u.).
Turning to “TCTTGATTGGTTGTTTTGGTTTGTTTCTTATTTATGTTTGCGGAGTCACCTAGTGCAG”, the binding signal is 8920 fluorescence intensity (a.u.).
As for “GGTATGGTGTCGGTTTTAGCCGGGGTCGTCGAGTCGTGCACGGAGTCACCTAGTGCAG”, the binding signal was 12000 fluorescence intensity (a.u.).
As for “AATCTGCGGCGCGAGGCGGAGGTGGTGGTGGTGGTGGTGGCGGAGTCACCTAGTGCAG”, the binding signal was 12000 fluorescence intensity (a.u.).
Consider “TCCAATCAAACGGCCATTCATGTGTTTTTCCTGTGTTTTGCGGAGTCACCTAGTGCAG”, for which the binding signal was 9430 fluorescence intensity (a.u.).
“GTAGTAGTAGTTGTTAGCTGGAGTGGTAGTGGTACACGATCGGAGTCACCTAGTGCAG”: the binding signal was 9040 fluorescence intensity (a.u.).
Consider “AGGTACAGAAGGGTGGTGTTTTTTTAGGAAATAAAAGTATCGGAGTCACCTAGTGCAG”, for which the binding signal was 8830 fluorescence intensity (a.u.).
Regarding “ACACCTGTTTTCCCCATCAGCTTTTCTTCTTTTTTCATATCGGAGTCACCTAGTGCAG”, the binding signal was 10200 fluorescence intensity (a.u.).
Regarding “TCTTTTTGTGTACTTAACTTGTGTCAATCTGTCTATATAGCGGAGTCACCTAGTGCAG”, the binding signal is 9660 fluorescence intensity (a.u.).
In the case of “ACTTTAACATGCATCTAAACACCAACCAGTACTTTTGCAACGGAGTCACCTAGTGCAG”, the binding signal was 8350 fluorescence intensity (a.u.).
The value for “CACATTTACTCCTCGCTCATCACCTCCCCAACGACCCAACCGGAGTCACCTAGTGCAG” was 9160 fluorescence intensity (a.u.); that for “GCTATTATCAACTTTGTCCTTTTACAAAACGTCAAATTTTCGGAGTCACCTAGTGCAG” was 10200 fluorescence intensity (a.u.); that for “CGCTGCCTCGCTCCGCTGCCCATCTCCTGTCATGCTGCTGCGGAGTCACCTAGTGCAG” was 8280 fluorescence intensity (a.u.).
For “CCGCCACGTTGCCACTGTTGTCCCCGCGTCACCGGCCACCCGGAGTCACCTAGTGCAG” the value was 11700 fluorescence intensity (a.u.).
With “GCACCGCGCTCCTTCTCTCCTGCCTCGCCCTGGCCAGCTTCGGAGTCACCTAGTGCAG”, the binding signal is 8040 fluorescence intensity (a.u.).
Regarding “AAAACTACTCCATTGACTGCTAAGCCCTTCTTTGTTTTTTCGGAGTCACCTAGTGCAG”, the binding signal was 10800 fluorescence intensity (a.u.).
On to “GCGGTTTCGTCCGACGTGGCGTCATTGACCCGGTTGACGACGGAGTCACCTAGTGCAG”, for which the binding signal is 9430 fluorescence intensity (a.u.).
The value for “AACATTTACTCTCTTCTCTTGTTTCGGTTTGAATGAGTTTCGGAGTCACCTAGTGCAG” was 9690 fluorescence intensity (a.u.); that for “CAGCGTAGCCGGTTGGCGTGGGGTCGGGGCGTCGGCGTGACGGAGTCACCTAGTGCAG” was 12800 fluorescence intensity (a.u.); that for “CATCGCTCTCTTCCACTGGTTCGCTCTCTCCGTCAAGCCGCGGAGTCACCTAGTGCAG” was 8920 fluorescence intensity (a.u.).
Turning to “TCCTCTAGTCAATGGTCAACTGTACGCGCGCGTTCATCTCCGGAGTCACCTAGTGCAG”, the binding signal was 10200 fluorescence intensity (a.u.).
For the sequence “GCTTATCATGGTCTGGTTAGTGGTTGATTGCTCATAGTTCCGGAGTCACCTAGTGCAG”, the binding signal is 13500 fluorescence intensity (a.u.).
On to “ATTGTTTGGTTGTTCATTATAAAATTTAAGCAATCTGAAGCGGAGTCACCTAGTGCAG”, for which the binding signal is 8150 fluorescence intensity (a.u.).
Consider “TCGTTCCTTTTGTCGAATCTGGGAGACGGTGGCGGCGGGGCGGAGTCACCTAGTGCAG”, for which the binding signal was 16000 fluorescence intensity (a.u.).
For “CTTCGTTCGTTGGATTCGCTCTCGCGCGCCGCCGCCGCCGCGGAGTCACCTAGTGCAG” the value was 11200 fluorescence intensity (a.u.).
Consider “GCTTCTCTTGTTTGTAGCAGTAGGCTGCTACGCGAGCCAACGGAGTCACCTAGTGCAG”, for which the binding signal is 8070 fluorescence intensity (a.u.).
As to “CTATACACTGTCATTCTTCGCTGCACAATCATGCCCATGGCGGAGTCACCTAGTGCAG”, the binding signal is 10700 fluorescence intensity (a.u.).
As for “CTCACACAAACCTGCCGACCTGCCACCATCCAAGATCTTCCGGAGTCACCTAGTGCAG”, the binding signal was 9880 fluorescence intensity (a.u.).
